## Assay results

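Plate-reader measure of the Venus reporter marking one vaccinia stage in infected cells (the cell line is not named here); read time unknown. The test concentration is not given here. Percent change in Venus reporter signal; lower (more negative) values mean stronger inhibition of that viral stage.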

Values are in %. The controls that fix the scale are not given here. Common to all entries: measured here: Venus reporter, other viral stage. This is a side read-out of the assay, for part of the compounds, not drawn at random.

{"structure": "C[C@H]1CCCCO[C@H](CN(C)Cc2ccccc2)[C@@H](C)CN([C@@H](C)CO)C(=O)c2cc(NC(=O)Nc3ccc4c(c3)OCO4)ccc2O1", "activity change (Venus) (%)": "-66.78"}
{"structure": "C[C@H]1CN([C@@H](C)CO)C(=O)c2cccc(NC(=O)CCCCCC(=O)Nc3ccccc3N)c2O[C@@H]1CN(C)CC1CCCCC1", "activity change (Venus) (%)": "-77.89"}
{"structure": "C[C@H](CO)N1C[C@H](C)[C@@H](CN(C)Cc2ccc(C(=O)O)cc2)Oc2cc(/C=C/c3ccccc3)ccc2S1(=O)=O", "activity change (Venus) (%)": "-27.98"}
{"structure": "C[C@H](CO)N1C[C@H](C)[C@H](CN(C)CC2CCCCC2)Oc2c(NC(=O)Nc3ccc(C(F)(F)F)cc3)cccc2C1=O", "activity change (Venus) (%)": "-79.05"}
{"structure": "CCCC#Cc1ccc2c(c1)O[C@H](CN(C)C(=O)Nc1ccc(OC)cc1)[C@@H](C)CN([C@H](C)CO)S2(=O)=O", "activity change (Venus) (%)": "-29.51"}
{"structure": "C/C=C/c1ccc2c(c1)O[C@@H](CN(C)Cc1ccc(F)cc1)[C@H](C)CN([C@@H](C)CO)S2(=O)=O", "activity change (Venus) (%)": "-30.32"}
{"structure": "COc1cccc(S(=O)(=O)N(C)C[C@H]2Oc3ncc(C#CC(C)C)cc3C(=O)N([C@H](C)CO)C[C@@H]2C)c1", "activity change (Venus) (%)": "-39.31"}
{"structure": "C/C=C/c1ccc(C2[C@@H]3CN(C(C)=O)C[C@H]2N3)cc1", "stereo": "some centres unmarked", "activity change (Venus) (%)": "-88.33"}
{"structure": "C[C@@H]1CN([C@H](C)CO)C(=O)Cc2cc(NC(=O)Nc3ccc(C(F)(F)F)cc3)ccc2O[C@@H]1CN(C)Cc1ccc(C(F)(F)F)cc1", "activity change (Venus) (%)": "-21.49"}
{"structure": "COc1ccc(S(=O)(=O)N(C)C[C@@H]2Oc3ccc(NC(=O)Nc4ccc(C(F)(F)F)cc4)cc3CC(=O)N([C@@H](C)CO)C[C@@H]2C)cc1", "activity change (Venus) (%)": "-36.22"}
{"structure": "COc1cccc(C#Cc2ccc([C@H]3[C@H]4CN(C(=O)C5CC5)CC(=O)N4[C@H]3CO)cc2)c1", "activity change (Venus) (%)": "-75.76"}
{"structure": "COc1ccc2c3c(n(C)c2c1)[C@@H](CO)N(C(=O)Nc1ccc(F)cc1)CC31CN(C(=O)c2ccccc2F)C1", "activity change (Venus) (%)": "-48.55"}
{"structure": "COc1ccc(S(=O)(=O)N(C)C[C@@H]2Oc3c(NC(=O)NC4CCCCC4)cccc3C(=O)N([C@@H](C)CO)C[C@@H]2C)cc1", "activity change (Venus) (%)": "-32.9"}
{"structure": "COC(=O)[C@]1(CCS(=O)(=O)c2ccccc2)N=C(c2ccc(OCCCO)cc2)O[C@@H]1c1ccccc1", "activity change (Venus) (%)": "-30.72"}
{"structure": "CCCNC(=O)C[C@@H]1CC[C@H]2[C@H](COc3ccc(NC(=O)CCC)cc3C(=O)N2C)O1", "activity change (Venus) (%)": "-25.07"}
{"structure": "Cc1noc(C)c1S(=O)(=O)Nc1ccc2c(c1)C(=O)N([C@@H](C)CO)C[C@@H](C)[C@@H](CN(C)S(=O)(=O)c1ccccc1)OCCCC[C@@H](C)O2", "activity change (Venus) (%)": "-28.14"}
{"structure": "C[C@@H]1CN([C@H](C)CO)C(=O)c2cccc(NC(=O)c3cnccn3)c2O[C@H]1CN(C)S(=O)(=O)c1cccs1", "activity change (Venus) (%)": "-57.08"}
{"structure": "C[C@H](CO)N1C[C@H](C)[C@H](CN(C)Cc2ccc(C(F)(F)F)cc2)Oc2c(NC(=O)Nc3ccc(C(F)(F)F)cc3)cccc2C1=O", "activity change (Venus) (%)": "-25.41"}
{"structure": "COCC(=O)N1CCCCN2[C@H](C1)[C@H](c1ccc(-c3cccc(C)c3)cc1)[C@@H]2CO", "activity change (Venus) (%)": "-35.52"}
{"structure": "COc1cccc(S(=O)(=O)Nc2ccc3c(c2)[C@H]2C[C@@H](CC(=O)NCc4ccc(Cl)cc4)O[C@H](CO)[C@H]2O3)c1", "activity change (Venus) (%)": "-26.47"}
{"structure": "CC(C)CC#Cc1cnc2c(c1)C(=O)N([C@@H](C)CO)C[C@@H](C)[C@@H](CN(C)Cc1ccc3c(c1)OCO3)O2", "activity change (Venus) (%)": "-45.94"}
{"structure": "C[C@@H]1CN([C@@H](C)CO)C(=O)c2cc(NS(=O)(=O)c3ccc(F)cc3)ccc2O[C@@H]1CN(C)Cc1ccc(C(F)(F)F)cc1", "activity change (Venus) (%)": "-38.91"}
{"structure": "COc1cccc(C(=O)Nc2ccc3c(c2)OC[C@H](C)N(CCc2ccccc2)C[C@H](C)[C@H](OC)CN(C)C3=O)c1", "activity change (Venus) (%)": "-24.83"}
{"structure": "COc1ccccc1-c1ccc(C2[C@@H]3CN(S(=O)(=O)c4ccccc4C)C[C@H]2N3)cc1", "stereo": "some centres unmarked", "activity change (Venus) (%)": "-42.64"}
{"structure": "COc1ccc(S(=O)(=O)Nc2ccc3c(c2)C(=O)N([C@H](C)CO)C[C@@H](C)[C@H](CN(C)C(=O)NC2CCCCC2)OCCCC[C@@H](C)O3)cc1", "activity change (Venus) (%)": "-26.67"}
{"structure": "CN(C)C(=O)c1ccc(-c2ccc([C@H]3[C@@H](C#N)N(C(=O)C4CCCC4)[C@H]3CO)cc2)cc1", "activity change (Venus) (%)": "-37.31"}
{"structure": "CC(=O)N(CC1CCC1)C[C@H]1N[C@H](CO)[C@@H]1c1ccc(C2=CCCC2)cc1", "activity change (Venus) (%)": "-23.74"}
{"structure": "C[C@H]1CN([C@@H](C)CO)S(=O)(=O)c2ccc(-c3ccccc3)cc2O[C@@H]1CN(C)Cc1cncnc1", "activity change (Venus) (%)": "-35.55"}
{"structure": "Cc1ccccc1-c1ccc([C@H]2[C@@H](CO)N3CCCCN(C(=O)Nc4ccccc4)C[C@@H]23)cc1", "activity change (Venus) (%)": "-31.94"}

Some entries from above, unchanged:

{"structure": "C[C@H](CO)N1C[C@H](C)[C@H](CN(C)Cc2ccc(C(F)(F)F)cc2)Oc2c(NC(=O)Nc3ccc(C(F)(F)F)cc3)cccc2C1=O", "activity change (Venus) (%)": "-25.41"}
{"structure": "C[C@H]1CN([C@@H](C)CO)S(=O)(=O)c2ccc(-c3ccccc3)cc2O[C@@H]1CN(C)Cc1cncnc1", "activity change (Venus) (%)": "-35.55"}
{"structure": "C/C=C/c1ccc(C2[C@@H]3CN(C(C)=O)C[C@H]2N3)cc1", "stereo": "some centres unmarked", "activity change (Venus) (%)": "-88.33"}
{"structure": "CN(C)C(=O)c1ccc(-c2ccc([C@H]3[C@@H](C#N)N(C(=O)C4CCCC4)[C@H]3CO)cc2)cc1", "activity change (Venus) (%)": "-37.31"}

Data taken from PubChem BioAssay AID1053133, deposited by Broad Institute (2014).